{
  "source": "PubChem BioAssay AID504834",
  "about": "(National Center for Advancing Translational Sciences (NCATS), 2011)",
  "note": "In all, about 320,000 compounds went through this assay and about 22,000 (6.9%) were called active. The inconclusive results got no clear call from the source; some entries with a clear call stand among them for comparison. Calls follow the shape of the dose curve; as a rule, active = well fitted inhibition curve with a large enough effect; inconclusive = small, poorly fitted or top-dose-only effect, or another doubt; inactive = no such curve, though single readings can be large or run the other way. Potencies of inconclusive entries are doubtful fits and often do not repeat. Potency is read from the fitted curve at half-maximal effect.",
  "data": [
    {"assay": "Primary qHTS for delayed death inhibitors of the malarial parasite plastid, 96 hour incubation", "details": "P. falciparum luciferase reporter growth; series mostly up to 28.7 µM", "method_in_brief": "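Cell-based qHTS: luciferase-tagged P. falciparum in erythrocytes (2% hematocrit, 0.05% parasitemia final) incubated with compounds for 96 hours, 37 C, 5% CO2; luciferase detection reagent then added and luminescence measured.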", "values": [
      {"compound": "c1ccc(C[n+]2csc3ccccc32)cc1", "Potency": "inactive"},
      {"compound": "COc1ccc(C(=O)NC(=S)NCc2cccnc2)cc1[N+](=O)[O-]", "Potency": "inconclusive: 0.586 µM [inhibitor, full curve, poor fit]"},
      {"compound": "CN1CCc2c(sc3nc(NN)n(Cc4ccccc4)c(=O)c23)C1", "Potency": "active: 2.08 µM"},
      {"compound": "COc1ccc(C(=O)N2CCN(Cc3ccc4c(c3)OCO4)CC2)cc1OC", "Potency": "active: 9.28 µM"},
      {"compound": "Cc1nn(CCCC(=O)NCCc2ccccc2)c(C)c1[N+](=O)[O-]", "Potency": "inconclusive: 10.4 µM [inhibitor, single point]"},
      {"compound": "Cc1c(C(=O)Nc2ccccc2)sc2ncn(CC(=O)N3CCCCC3)c(=O)c12", "Potency": "inconclusive: 11.7 µM [inhibitor, partial curve, poor fit]"},
      {"compound": "O=C(CSc1nc(=O)n2ccccc2n1)N1N=C(c2cccs2)CC1c1ccc(F)cc1", "note": "(configuration not stated)", "Potency": "inconclusive: 7.38 µM [inhibitor, partial curve, poor fit]"},
      {"compound": "O=S(=O)(NCCCc1ccccc1)c1ccc(Cl)cc1", "Potency": "active: 9.28 µM"},
      {"compound": "COc1ccccc1C(=O)OC(C)CN1CCN(C)CC1", "note": "(configuration not stated)", "Potency": "inconclusive: 8.28 µM [inhibitor, single point]"},
      {"compound": "O=C(Cn1cc(C(F)(F)F)ccc1=O)NCc1ccc(F)cc1", "Potency": "inactive"},
      {"compound": "Cc1ccc(S(=O)(=O)Cn2nnnc2C(C)N2CCN(C(=O)c3ccco3)CC2)cc1", "note": "(configuration not stated)", "Potency": "active: 5.22 µM"},
      {"compound": "COc1ccc(-c2[nH]ncc2CNCC(C)(C)N2CCOCC2)cc1F", "Potency": "inconclusive: 11.7 µM [inhibitor, single point]"},
      {"compound": "O=C(Cc1cccc2ccccc12)NC(=S)Nc1cccc(C(=O)O)c1", "Potency": "inactive"},
      {"compound": "COc1cc(NC(=O)CCc2nnc3ccc(N4CCCCC4)nn23)cc(OC)c1OC", "Potency": "active: 10.4 µM"},
      {"compound": "CC1=C/C(=N\\NC(=S)NCc2ccccc2)CC1", "Potency": "inconclusive: 2.08 µM [inhibitor, full curve, poor fit]"},
      {"compound": "O=C(Nc1ccncc1)C1CCN(S(=O)(=O)c2ccc(Cl)c(C(F)(F)F)c2)CC1", "Potency": "active: 11.7 µM"},
      {"compound": "O=C1CN(C(=O)CNCc2ccccc2Cl)c2ccccc2N1", "Potency": "inconclusive: 13.1 µM [inhibitor, single point]"},
      {"compound": "N=C1C(c2nc3ccccc3s2)=C(O)CN1NC(=O)c1c[nH]c2ccccc12", "Potency": "inactive"},
      {"compound": "COc1ccc(Cl)cc1NC(=O)CN(C)C(=O)c1ccc2c(c1)CC(c1ccccc1)OC2=O", "note": "(configuration not stated)", "Potency": "inconclusive: 18.5 µM [inhibitor, single point]"},
      {"compound": "CCn1c(SC)nc2cc(S(=O)(=O)N3CCCCC3)ccc21", "Potency": "inconclusive: 10.4 µM [inhibitor, partial curve, poor fit]"},
      {"compound": "CCN(CCCNC(=O)c1ccc(N2CCCC2=O)cc1)c1cccc(C)c1", "Potency": "inconclusive: 0.0465 µM [inhibitor, full curve, poor fit]"},
      {"compound": "CC1Sc2ccc(S(=O)(=O)N3CCC(C(N)=O)CC3)cc2NC1=O", "note": "(configuration not stated)", "Potency": "inconclusive: 16.5 µM [inhibitor, single point]"},
      {"compound": "Cc1nn(C(C)C(=O)O)c2ccccc12", "note": "(configuration not stated)", "Potency": "inconclusive: 10.4 µM [inhibitor, single point]"},
      {"compound": "COc1ccc(CNC(=O)COC(=O)/C=C/c2ccc(Cl)cc2)cc1", "Potency": "inactive"},
      {"compound": "CC(=O)Nc1cccc(OCCCNS(=O)(=O)c2ccc(C#N)cc2)c1", "Potency": "inactive"},
      {"compound": "S=C(NCCN1CCOCC1)N/N=C/c1ccccc1", "Potency": "inconclusive: 18.5 µM [inhibitor, single point]"},
      {"compound": "C=CCN(c1ccccc1OC)S(=O)(=O)c1ccc(Cl)c(C(=O)Nc2ccc(N3CCOCC3)cc2)c1", "Potency": "active: 4.15 µM"},
      {"compound": "O=C(c1cc2cc(Cl)ccc2oc1=O)N1CCN(c2ccccn2)CC1", "Potency": "inconclusive: 18.5 µM [inhibitor, single point]"},
      {"compound": "Cc1cccc(C)c1OCC(O)CNC(C)(C)C", "note": "(configuration not stated)", "Potency": "inconclusive: 0.0738 µM [inhibitor, full curve, poor fit]"},
      {"compound": "O=C(NCc1ccco1)C1CCCN1C(=O)NCc1ccccc1", "note": "(configuration not stated)", "Potency": "inconclusive: 18.5 µM [inhibitor, single point]"},
      {"compound": "Cc1cccc(NC(=O)C2CCN(C(=O)NCc3ccccc3)CC2)c1C", "Potency": "inconclusive: 11.7 µM [inhibitor, partial curve]"},
      {"compound": "N#Cc1c(NC(=O)CCCC(=O)O)sc2c1CCCCC2", "Potency": "inactive"},
      {"compound": "O=C(Nc1cccc(C(F)(F)F)c1)Nc1ccc(N2CCCC2)c(S(=O)(=O)Nc2ccccc2Cl)c1", "Potency": "inconclusive: 3.7 µM [inhibitor, full curve, poor fit]"},
      {"compound": "CCN(C(=O)CSc1cc(-c2ccccc2)c2ccc(OC)cc2n1)C1CCS(=O)(=O)C1", "note": "(configuration not stated)", "Potency": "inconclusive: 18.5 µM [inhibitor, single point]"},
      {"compound": "CC1Cc2nc(SCC(=O)N3CCc4ccccc43)n(C)c(=O)c2S1", "note": "(configuration not stated)", "Potency": "inconclusive: 18.5 µM [inhibitor, single point]"},
      {"compound": "Cc1onc(-c2ccccc2Cl)c1C(=O)N(Cc1nc(-c2ccccc2)no1)C1CCCCC1", "Potency": "inconclusive: 2.08 µM [inhibitor, partial curve, poor fit]"},
      {"compound": "CC(=O)C1=C(C)N2CCN=C2S1", "Potency": "inactive"},
      {"compound": "COc1ccc(Cc2nccc3cc(OC)c(OC)cc23)cc1OC", "Potency": "inconclusive: 13.1 µM [inhibitor, partial curve, poor fit]"},
      {"compound": "CCOC(=O)C1=C(c2ccccc2)NC(=O)NC1c1cc(OCC)c(O)c([N+](=O)[O-])c1", "note": "(configuration not stated)", "Potency": "inactive"},
      {"compound": "Cc1ccc2nc(-c3ccc(NC(=O)c4cccnc4)cc3)oc2c1", "Potency": "inconclusive: 8.28 µM [inhibitor, partial curve]"},
      {"compound": "CC(=O)c1cnc2c(-c3cccc(Br)c3)cnn2c1C", "Potency": "inconclusive: 9.28 µM [inhibitor, partial curve]"},
      {"compound": "Cc1ccc(C)c(N2CCN(S(=O)(=O)c3ccc4c(c3)oc(=O)n4C)CC2)c1", "Potency": "inconclusive: 1.17 µM [inhibitor, full curve]"},
      {"compound": "c1cncc(C(c2nnnn2C2CCCC2)N2CCN(Cc3ccc4c(c3)OCO4)CC2)c1", "note": "(configuration not stated)", "Potency": "inconclusive: 13.1 µM [inhibitor, single point]"},
      {"compound": "Cc1ccccc1OCc1nnc(SCc2cc(=O)[nH]c3ccccc23)o1", "Potency": "inconclusive: 1.31 µM [inhibitor, partial curve, poor fit]"},
      {"compound": "CC(C)NS(=O)(=O)c1ccc(NC(=O)C(C)OC(=O)CCC(=O)c2cccs2)cc1", "note": "(configuration not stated)", "Potency": "inactive"},
      {"compound": "CC(C)C[C@H](NC(=O)N1CCn2c1nc1ccccc12)C(=O)NCc1ccc2c(c1)OCO2", "Potency": "inconclusive: 11.7 µM [inhibitor, partial curve, poor fit]"},
      {"compound": "C=CCN1C(=O)/C(=C\\c2cccc(OC(=O)c3ccco3)c2)SC1=S", "Potency": "inactive"},
      {"compound": "COc1ccc(C(=O)C2CCCN(Cc3cccc(C)n3)C2)c(OC)c1", "note": "(configuration not stated)", "Potency": "active: 1.04 µM"},
      {"compound": "O=c1cc(CN2CCN(S(=O)(=O)c3ccccc3)CC2)nc2sccn12", "Potency": "inconclusive: 20.8 µM [inhibitor, single point]"},
      {"compound": "CCCCC(=O)N1CCN(c2nc3ccc(OCC)cc3s2)CC1", "Potency": "active: 11.7 µM"},
      {"compound": "CCOC(=O)Cn1c(=O)n(C2CCCC2)c(=O)c2ccccc21", "Potency": "inconclusive: 3.7 µM [inhibitor, full curve, poor fit]"},
      {"compound": "COc1ccccc1NC(=O)N1CCC(c2nc3cc(C)c(C)cc3[nH]2)CC1", "Potency": "inactive"},
      {"compound": "CCOC(=O)N1CCN(c2nc3ccccc3nc2C(C#N)C(=O)NCCc2ccccc2)CC1", "note": "(configuration not stated)", "Potency": "inconclusive: 2.94 µM [inhibitor, full curve, poor fit]"},
      {"compound": "CCC(=O)NCCc1nc2cc(NC(=O)c3ccc(Cl)cc3)ccc2n1C", "Potency": "inactive"},
      {"compound": "N=c1n(CCN2CCCCC2)c2ccccc2n1CC(O)c1cccc(Br)c1", "note": "(configuration not stated)", "Potency": "active: 0.738 µM"},
      {"compound": "CCCN1CCc2c(sc3nc(SCC)n(-c4ccccc4)c(=O)c23)C1", "Potency": "active: 0.262 µM"},
      {"compound": "CCN(CC)C(=O)C(C)OC(=O)COc1ccc(Cl)cc1C", "note": "(configuration not stated)", "Potency": "inconclusive: 8.28 µM [inhibitor, partial curve]"},
      {"compound": "C=CCn1c(SC)nnc1C1COc2ccccc2O1", "note": "(configuration not stated)", "Potency": "inconclusive: 13.1 µM [inhibitor, single point]"},
      {"compound": "CCOC(=O)Cn1nnnc1CN(Cc1ccc(OC)cc1)Cc1cc2cc(CC)ccc2[nH]c1=O", "Potency": "inconclusive: 10.4 µM [inhibitor, single point]"},
      {"compound": "O=C(N/N=C/c1ccc(O)cc1)c1ccc(COc2cc(Cl)ccc2Cl)o1", "Potency": "inactive"},
      {"compound": "CN(C)CC/C=C1\\c2ccccc2COc2ccc(CC(=O)O)cc21", "Potency": "inactive"},
      {"compound": "CCCc1cc(=O)[nH]c(SCC(=O)N2CCC(C(=O)OCC)CC2)n1", "Potency": "inactive"},
      {"compound": "CC(OC(=O)c1cc(S(=O)(=O)N2CCOCC2)ccc1F)C(=O)NC1CCCCC1C", "note": "(configuration not stated)", "Potency": "inactive"},
      {"compound": "CCN1C(=O)N(C(C)=O)C2C1N(C(C)=O)C(=O)N2C(C)=O", "note": "(configuration not stated)", "Potency": "inactive"},
      {"compound": "C=CCN(CC=C)S(=O)(=O)c1ccc2nc(NC(=O)C3CCCO3)sc2c1", "note": "(configuration not stated)", "Potency": "inconclusive: 10.4 µM [inhibitor, partial curve, poor fit]"},
      {"compound": "CCSc1nnc(-c2cc(Br)ccc2NC(C)=O)c(=O)[nH]1", "Potency": "inactive"},
      {"compound": "O=C(Nc1cccc(F)c1)/C(=C\\c1cccnc1)NC(=O)c1cccs1", "Potency": "inactive"},
      {"compound": "Cc1c(Cl)cccc1NC(=S)N1CCc2ccccc2C1", "Potency": "inconclusive: 14.7 µM [inhibitor, single point]"},
      {"compound": "COc1ccc(/C=N/Nc2nnc(Cc3ccc(OC)c(OC)c3)c(=O)[nH]2)cc1", "Potency": "inconclusive: 9.28 µM [inhibitor, single point]"},
      {"compound": "CC1(C)CSC(=NCCc2ccccc2)N1C(=O)c1ccc(C#N)cc1", "Potency": "inactive"},
      {"compound": "O=C(O)c1cc(-c2ccc(/C=N/Nc3ccc([N+](=O)[O-])cn3)o2)ccc1Cl", "Potency": "inactive"},
      {"compound": "CN(C)CCNC(NC(=O)c1cccs1)C(Cl)(Cl)Cl", "note": "(configuration not stated)", "Potency": "inconclusive: 13.1 µM [inhibitor, partial curve, poor fit]"}
    ]}
  ]
}
